Laboratory results taken from article PMC7393493.

Sequences of proteins named here, by UniProt entry; tags and fusion partners are left off. A change or cut given only in a name is not applied to a line headed by its entry.
UniProt Q8IZW8: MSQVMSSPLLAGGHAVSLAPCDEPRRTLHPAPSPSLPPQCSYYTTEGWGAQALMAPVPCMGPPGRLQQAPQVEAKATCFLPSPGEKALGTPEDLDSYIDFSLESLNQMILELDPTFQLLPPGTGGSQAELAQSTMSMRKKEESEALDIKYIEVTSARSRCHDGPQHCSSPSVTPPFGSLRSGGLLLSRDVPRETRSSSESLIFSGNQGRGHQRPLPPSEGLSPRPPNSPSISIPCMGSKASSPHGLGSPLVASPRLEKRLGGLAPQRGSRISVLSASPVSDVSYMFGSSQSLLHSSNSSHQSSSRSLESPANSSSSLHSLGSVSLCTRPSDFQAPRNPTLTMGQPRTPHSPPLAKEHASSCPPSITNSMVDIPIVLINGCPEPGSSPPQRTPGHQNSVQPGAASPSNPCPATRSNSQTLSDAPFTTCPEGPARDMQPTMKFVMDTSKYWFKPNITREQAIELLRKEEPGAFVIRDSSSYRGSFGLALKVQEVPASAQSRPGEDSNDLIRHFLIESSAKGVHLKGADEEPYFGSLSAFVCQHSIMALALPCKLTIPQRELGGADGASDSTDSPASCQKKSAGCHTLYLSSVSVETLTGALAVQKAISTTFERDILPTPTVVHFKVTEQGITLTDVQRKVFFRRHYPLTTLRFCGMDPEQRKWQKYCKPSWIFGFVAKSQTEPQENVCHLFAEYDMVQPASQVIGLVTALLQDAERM

Target: EGFR (human (endogenous in KYSE150 and KYSE510)) (UniProt P00533)
Experiment: co-IP; KYSE150 and KYSE510 cell lysates, precleared with protein G-agarose (4 h, 4 °C); anti-EGFR antibody (Abcam, ab52894) overnight at 4 °C, protein G-agarose overnight at 4 °C; western blotting of the immunoprecipitates

- binding: binds
Substance: TNS4 (from UniProt Q8IZW8)

Results are given in words; binding and its absence hold for the method and conditions named. Binding seen in cells or lysates may run through a third protein. Binding can be weak; no strength is given.
